Test: Partition coefficient (logP)
Details: octanol/water

## COC(=O)c1ccccc1N1CCC(O)(CNc2nccc(C)c2NC(=O)CC#N)CC1
  logP: 2.1

From ChEMBL document CHEMBL1142801, “Bradykinin B1 antagonists: SAR studies in the 2,3-diaminopyridine series” (Bioorg Med Chem Lett, 2005)
